# Source: PubChem BioAssay AID758 (NMMLSC, 2007)
# Out of some 190,000 compounds screened, about 110 (0.058%) were called active. Inconclusive means that the source gave no clear call. Such entries were picked first, then a sample of the others.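 Rule for the calls: active = fluorescent GTP binding to Rab7 beads changed by at least 20 points from the 100% baseline, either direction, mostly lower; inconclusive = compound itself probably fluorescent, or too few beads counted; inactive = the rest.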
# Test system: Rab7 GTPase wild type (dog), Bodipy-FL-GTP binding
# Assay: modulators of GTP binding to Rab7, primary screen, biochemical, wildtype, multiplex bead flow cytometry (AID 758);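 note: median green fluorescence of bound Bodipy-FL-GTP per Rab7 bead population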
# Details: GST-Rab7 beads, fluorescent GTP binding, at 10 µM, actives lie on both sides, untreated = 100%, excess cold GTP = 0%
row,Compound,GTP binding activity (percent of control)
1,CCOC(=O)N1CCN(C(=O)/C=C/c2cccc([N+](=O)[O-])c2)CC1,inactive: 98%
2,CCn1ncc(Cl)c1C(=O)Nc1cc(Cl)ccc1Cl,inconclusive: 87%
3,COC(=O)[C@H](CCSC)NC(=O)NC1CCN(Cc2ccccc2)CC1,inconclusive: 105%
4,COC(=O)c1cccc(-n2cnnn2)c1,inconclusive: 99%
5,CCN(CC)c1ccc(/C=C/C(=O)c2ccc(Br)cc2)cc1,inconclusive: 141%
6,O=C(NCCC(c1ccccc1)c1ccccc1)c1cnccn1,inconclusive: 105%
7,Cc1ccc2cc(COC(=O)C3CCCO3)c(=O)[nH]c2c1 (configuration not stated),inactive: 104%
8,CCOC(=O)c1sc2nc(CC(=O)OC)nc(N3CCN(c4ccccn4)CC3)c2c1C,inconclusive: 95%
9,CCN(C(=O)COc1cc(=O)n(C)c2ccccc12)c1cccc(Cl)c1,inconclusive: 97%
10,Cc1ccc2nc(C)c(C(=O)N/N=C/c3cccs3)cc2c1,inconclusive: 97%
11,CC(Sc1nc2c(cc1C#N)CCCCC2)C(=O)O (configuration not stated),inactive: 103%
12,COc1ccc(/C=N\NC(=O)CCN2CCN(c3ccccc3)CC2)cc1OC,inconclusive: 93%
13,O=C(CSc1nc2nn(-c3ccccc3)c(=O)c-2c2n1CCCCC2)NCCCc1ccccc1,inconclusive: 93%
14,O=c1[nH][nH]c(-c2ccccc2O)c1C(C[N+](=O)[O-])c1ccccc1 (configuration not stated),inconclusive: 99%
15,CCNC(=O)CC1C(=O)N(c2ccc(F)cc2)C(=O)N1Cc1ccccn1 (configuration not stated),inconclusive: 105%
16,CC(C)c1ccc(NC(=O)COC(=O)/C=C/c2cccc([N+](=O)[O-])c2)cc1,inconclusive: 89%
17,Brc1ccc(CNc2cc3c(cc2Br)OCCO3)cc1,inactive: 104%
18,ClC1(Cl)CC1CSc1nc2ccccc2[nH]1 (configuration not stated),inconclusive: 94%
19,O=c1c2ccccc2nc2c3ccccc3c(NCc3ccccn3)nn12,inactive: 87%

row,Compound,GTP binding activity (percent of control)
1,Cc1n[nH]c(=O)nc1N1CCN(c2ccccc2)CC1,inconclusive: 91%
2,COc1ccc(C(=O)O/N=C(\N)Cc2ccc(Cl)c(Cl)c2)cc1OC,inconclusive: 98%
3,COC(=O)COc1ccc(S(=O)(=O)Nc2ccc3c(c2)OCO3)cc1,inconclusive: 104%
4,Cc1cccc(C2(c3cccc(C)c3)CC2C(=O)Nc2ccc([N+](=O)[O-])cc2O)c1 (configuration not stated),inactive: 99%
5,Cc1cc(C2(c3cc(C)c(NC(=O)CN4CCOCC4)c(C)c3)CCCCC2)cc(C)c1NC(=O)CN1CCOCC1,inconclusive: 108%
6,CN1CCC(N(C)C(=S)NCCc2ccccc2)CC1,inactive: 97%
7,CCNC(=O)NC(=O)COC(=O)CCc1nc(=O)c2ccccc2n1C,inactive: 98%
8,O=C(CSc1ccc2c(c1)OCCO2)Nc1cccnc1,inconclusive: 96%
9,O=S(=O)(c1ccc2c(c1)oc1ccccc12)N1CCOCC1,inconclusive: 107%
10,Cc1onc(C(=O)NN)c1C(=O)N1CCN(C(c2ccccc2)c2ccccc2)CC1,inconclusive: 91%
11,CC(=O)Nc1ccc(S(=O)(=O)N2CCN=C2C)cc1,inconclusive: 104%
12,COC(=O)c1c(N2C(=O)[C@H]3[C@@H](C2=O)[C@]2(C(=O)Nc4c(C)cc(C)cc42)N2CCC[C@@H]32)sc(C)c1C,active: 121% [activator]
13,CC1CC(C)(C)CC2(C1)NC(=O)N(CC(=O)NC1CCCc3ccccc31)C2=O (configuration not stated),inactive: 100%
14,COc1ccc(/C=C/C(=O)NC(=S)Nc2cc([N+](=O)[O-])ccc2O)cc1OC,inconclusive: 93%
15,COc1ccc(-n2cccc2/C=C2\C(=N)N3N=C(c4ccco4)SC3=NC2=O)cc1,inconclusive: 86%
16,COc1ccccc1NC(=O)C1CC(=O)OC1c1ccccc1 (configuration not stated),inconclusive: 103%
17,Cc1nnc(SCC(=O)c2ccc(S(=O)(=O)N3CCOCC3)cc2)n1-c1ccccc1,inconclusive: 98%
18,Cc1ccc(Oc2ccc(-c3nnc(-c4ccccc4)o3)cc2[N+](=O)[O-])cc1C,inactive: 96%
19,O=C(Cn1cnc2c(nnn2Cc2ccc(F)cc2)c1=O)NCc1ccc2c(c1)OCO2,inconclusive: 98%

row,Compound,GTP binding activity (percent of control)
1,O=C(CS(=O)(=O)c1ccccc1)Nc1ccc(S(=O)(=O)Nc2ccccn2)cc1,inactive: 107%
2,COc1ccc(C(=O)NCC(=O)OCC(=O)Nc2sccc2C#N)cc1OC,inactive: 95%
3,COc1ccccc1N(CCN1C(=O)c2cccc3cccc(c23)C1=O)C(=O)c1ccncc1,inactive: 97%
4,CCOc1ccccc1-c1c2cc(O)c(=O)cc-2oc2cc(O)c(O)cc12,inconclusive: 249%
5,O=C(O)C1C2C=CC(C2)C1C(=O)Nc1ccc(C(=O)N2CCCCC2)cc1 (configuration not stated),inconclusive: 104%
6,Nc1ncc(Br)cc1S(=O)(=O)NCCC(=O)Nc1cccc(Cl)c1,inconclusive: 103%
7,COc1ccc(OC)c(S(=O)(=O)Nc2ccc(O)c(Sc3ncn[nH]3)c2)c1,active: 21%
8,Cc1c(NC(=O)/C(C#N)=C/c2ccc(-c3cc(Cl)ccc3Cl)o2)c(=O)n(-c2ccccc2)n1C,inconclusive: 84%
9,Cn1c(=O)c2ncn(CC(=O)NCCOc3ccc(C(C)(C)C)cc3)c2n(C)c1=O,inconclusive: 105%
10,CC(=O)c1c(C)[nH]c(C(=O)OCC(=O)NCCC(C)C)c1C,inactive: 95%
11,CC(C)N1C(=O)/C(=C\c2nc3ccccc3c(=O)[nH]2)c2ccccc21,inconclusive: 98%
12,CC(C)Oc1cccc(C(=O)NC(=S)Nc2ccc3c4c(cccc24)CC3)c1,inconclusive: 89%
13,COC(=O)C1=C(C)N(c2cc(C)cc(C)c2)/C(=C/c2ccco2)C1=O,inconclusive: 92%
14,O=C1C2C3C=CC(C3)C2C(=O)N1c1cccnc1 (configuration not stated),inconclusive: 92%
15,COc1ccc(C(C#N)C2(C)OCCO2)cc1OC (configuration not stated),inactive: 101%
16,C=CCN1CCN(C(c2ccccc2OC)c2nnnn2C(C)(C)C)CC1 (configuration not stated),inactive: 101%
17,CCCCN(C)CCOc1ccccc1OCC,inconclusive: 104%
18,COc1cccc(NC(=O)c2ccc(NC(=O)C3CC(=O)OC34CCCCC4)cc2)c1 (configuration not stated),inactive: 91%
19,CC(OC(=O)CCC(=O)c1cccs1)C(=O)Nc1ccccc1[N+](=O)[O-] (configuration not stated),inconclusive: 86%

# Pulled by structure from the list above:
row,Compound,GTP binding activity (percent of control)
3,COc1ccccc1N(CCN1C(=O)c2cccc3cccc(c23)C1=O)C(=O)c1ccncc1,inactive: 97%
9,Cn1c(=O)c2ncn(CC(=O)NCCOc3ccc(C(C)(C)C)cc3)c2n(C)c1=O,inconclusive: 105%
